{"source": "patent US20160083429A1", "about": "“COMPOSITIONS AND METHODS FOR ENDOTOXIN NEUTRALIZATION” (Immunotrex Biologics, Inc., priority 2014, published 2016)", "assay": "ESI-MS detection of peptide-Lipid-A complex formation", "type": "binding", "conditions": "CHL/MeOH/H2O solutions; D-Lipid-A 0.005 mg/mL", "procedure": "In this example, electrospray ionization mass spectrometry experiments were carried out on Lipid-A (D-Lipid-A) and peptides WK-11, KK-12, KK-11 under a variety of solution and mass spectrometry conditions. Binding of D-Lipid-A to WK-11, KK-12, KK-11 peptides was observed by mass spectrometry methods, as quite abundant ion (LipidA-peptide) complexes were detected from CHL/MeOH/H2O solutions.\nMaterials: Three peptides KFFKKFFKFFKK (SEQ ID NO: 1; KK-12), WKKWWKKWWKK (SEQ ID NO: 2; WK-11), and KKKKFFFKFFK (SEQ ID NO: 3; KK-11) were ordered from a custom commercial synthesis. Diphosphoryl Lip-A (D-Lipid-A) (C94O25N2P2H178) was obtained from Sigma.\nChemicals: chloroform (CHL), methanol (MeOH), Water (H2O), triethylamine (TEA), ammonium acetate. […]\nSolubility studies were performed in order to optimize the solubility of both the peptides and diphosphoryl Lipid A. Solution conditions for electrospray ionization mass spectrometry experiments on diphosphoryl Lipid A and peptides were evaluated using (CHL)X(MeOH)Y(H2O)Z, where X=0-70%; Y=0-70%; and Z=0-95%.\nIn one experiment, Diphosphoryl Lipid A (0.005 mg/mL) and WK-11 (0.005 mg/mL) were dissolved in 70% CHL/30% MeOH/0.5% water and evaluated by ESI-MS. […]\nIn another experiment, Diphosphoryl Lipid A (0.005 mg/mL) and KK-12 (0.005 mg/mL) were dissolved in 70% CHL/30% MeOH/0.5% water and evaluated by ESI-MS. […]", "note": "Entries after “also recorded” stand apart in the source; their conditions may differ. At least one structure is not confirmed: it was looked up by name or label, or the drawing left a doubt."}
{"smiles": "CSCC[C@H](NC(=O)[C@H](CC(C)C)NC(=O)[C@H](Cc1cnc[nH]1)NC(=O)CNC(=O)[C@@H](NC(=O)[C@H](C)NC(=O)[C@H](Cc1c[nH]c2ccccc12)NC(=O)[C@H](CCC(N)=O)NC(=O)[C@H](CC(N)=O)NC(=O)CNC(=O)[C@H](CC(C)C)NC(=O)[C@H](CCCN=C(N)N)NC(=O)[C@H](CCC(N)=O)NC(=O)[C@@H]1CCC(=O)N1)C(C)C)C(N)=O", "note": "[Bombesin]", "values": [{"measurement": "binding to Lipid A (complex formation detected by ESI-MS)", "result": "no sign of binding propensity to D-Lipid-A; also recorded: No complex formation is observed"}]}
